In PMC3464894 one finds binding data, which are given here for two molecules.

In assay [1] the target is T1, NEFA-interacting nuclear protein NIP30 (human (endogenous in HEK 293T)) (UniProt Q9GZU8).
T1 sequence: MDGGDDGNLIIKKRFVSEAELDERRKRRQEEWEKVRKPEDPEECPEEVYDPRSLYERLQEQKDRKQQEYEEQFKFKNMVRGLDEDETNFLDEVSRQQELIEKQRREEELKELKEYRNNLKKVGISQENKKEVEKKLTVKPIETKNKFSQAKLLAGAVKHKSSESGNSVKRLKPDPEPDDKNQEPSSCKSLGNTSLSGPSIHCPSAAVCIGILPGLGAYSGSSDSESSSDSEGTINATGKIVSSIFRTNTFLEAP
Nature of the assay: co-IP.

The target of assay [2] is HTLV-2 p28 (S-p28-HA) (HTLV-2). Nature of the assay: pull-down; S-tag affinity purification on S-beads from lysates of 293T cells transfected with mock, S-GFP, S-p30-HA or S-p28-HA; overnight at 4°C; 1 M NaCl RIPA and RIPA washes; eluted by boiling in SDS loading buffer; immunoblot for the endogenous host protein. For orientation: Immunoblotting shows a protein as a band on a membrane.

These are yes or no findings as the source states them, for the method shown. Binding seen in cells or lysates may run through a third protein.

Consider HTLV-2 p28 (S-p28-HA), for which the binding result in assay [1] was “no binding”.

B1: NEFA-interacting nuclear protein NIP30 (protein, UniProt Q9GZU8 1-254)
chain: MDGGDDGNLIIKKRFVSEAELDERRKRRQEEWEKVRKPEDPEECPEEVYDPRSLYERLQEQKDRKQQEYEEQFKFKNMVRGLDEDETNFLDEVSRQQELIEKQRREEELKELKEYRNNLKKVGISQENKKEVEKKLTVKPIETKNKFSQAKLLAGAVKHKSSESGNSVKRLKPDPEPDDKNQEPSSCKSLGNTSLSGPSIHCPSAAVCIGILPGLGAYSGSSDSESSSDSEGTINATGKIVSSIFRTNTFLEAP
B1: the binding result in assay [2] is given as “no binding”.
